Results are given in words; binding and its absence hold for the method and conditions named. In cells and extracts the contact can be indirect. Binding calls can cover weak binding; strength is not graded here.
Biological target: T1, Cyclin-dependent kinase 4 (rat (endogenous in primary ADSCs)) (UniProt P35426)
T1 sequence: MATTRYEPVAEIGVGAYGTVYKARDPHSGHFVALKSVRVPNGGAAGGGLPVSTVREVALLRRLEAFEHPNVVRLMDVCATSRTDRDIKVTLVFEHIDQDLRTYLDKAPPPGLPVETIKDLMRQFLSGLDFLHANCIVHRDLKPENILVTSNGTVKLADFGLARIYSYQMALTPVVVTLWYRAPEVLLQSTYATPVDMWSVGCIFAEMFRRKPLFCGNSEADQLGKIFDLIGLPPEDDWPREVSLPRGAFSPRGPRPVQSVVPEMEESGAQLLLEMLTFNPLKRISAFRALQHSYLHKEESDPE
Assay: co-IP; anti-CDK4 antibody (Abcam, ab226474) with a commercial Co-IP kit (Thermo, 26149) on ADSC lysates, control or PA-treated (500 umol/l sodium palmitate, 12 h); precipitate read by WB

binding: binds
Substance: deubiquitinase OTUD4 (rat (endogenous in primary ADSCs)) (enzyme)

— PMC12743421
